In PubChem BioAssay AID270 (DTP/NCI, 2004):
The list does not hold the whole screen: it gathers some chemical classes. Other doses and runs of a compound may be missing. T/C is the treated group as % of the vehicle group. Schedules are NCI's codes, taken here to give the interval after Q, in days (D) or hours (H), and the number of doses after X. Some entries were tested several times; the values are given in rising order. Some T/C values carry the count of animals alive at the toxicity check; without a count or a note in brackets, all were alive then. Some doses have a count of surviving animals in place of a T/C: the source holds a T/C of zero for them, seemingly a mark for toxic or unscored doses. Some survivor counts are full or nearly so, which does not show that the dose was tolerated: the source hardly ever lists a survival T/C far under the control, and the zero likely stands for such cases as well. Counts of survivors are from the toxicity check (mostly the fifth day) where no day follows; animals may have died later. Where survival is the endpoint, this PubChem deposit counts one and a half times the control or more as active, and values a quarter to a half above the control carry no call in these data; other NCI protocols may use other cut-offs. Counts like (3×) count equal records among those shown.

System: BDF1 mice, s.c. Lewis lung carcinoma, T/C %
Assay: NCI In Vivo Anticancer Drug Screen. Data for tumor model Lewis Lung Carcinoma (subcutaneous) in B6D2F1 (BDF1) mice
Experimental: The antitumor activity of compounds was measured in mice bearing transplantable tumors. Survival or tumor size were measured and the results are expressed as the measurement made in the treated group (T) divided by the measurement made in the vehicle treated control group (C). The tumor model used in this assay is Lewis Lung Carcinoma (subcutaneous) in B6D2F1 (BDF1) mice

[1] = T/C endpoint: median survival time, dose: 105.0 mg/kg/injection, schedule: Q01DX015 (ip), vehicle: other, higher T/C = longer survival
[2] = T/C endpoint: median survival time, dose: 200.0 mg/kg/injection, schedule: Q01DX009 (ip), vehicle: saline with Tween-80, higher T/C = longer survival
[3] = T/C endpoint: median survival time, dose: 400.0 mg/kg/injection, schedule: Q08DX002 (ip), vehicle: saline with Tween-80, higher T/C = longer survival
[4] = T/C endpoint: median survival time, dose: 800.0 mg/kg/injection, schedule: Q08DX002 (ip), vehicle: saline with Tween-80, higher T/C = longer survival

## NC(=O)c1[nH]cnc1/N=N\N(CCCl)CCCl
T/C endpoint: mean tumor weight, dose: 18.5 mg/kg/injection, schedule: Q01DX011 (ip), vehicle: other, evaluated on day 12, higher T/C = larger tumour
  T/C: 114 % of control [9 of 10 alive]
T/C endpoint: mean tumor weight, dose: 37.0 mg/kg/injection, schedule: Q01DX011 (ip), vehicle: other, evaluated on day 12, higher T/C = larger tumour
  T/C: 69 % of control
T/C endpoint: mean tumor weight, dose: 56.0 mg/kg/injection, schedule: Q01DX011 (ip), vehicle: other, evaluated on day 12, higher T/C = larger tumour
  T/C: 56 % of control [9 of 10 alive]
T/C endpoint: median survival time, dose: 16.0 mg/kg/injection, schedule: Q01DX009 (ip), vehicle: other, higher T/C = longer survival
  T/C: 125 % of control
T/C endpoint: median survival time, dose: 25.0 mg/kg/injection, schedule: Q01DX009 (ip), vehicle: Klucel (hydroxypropylcellulose) (HPC), higher T/C = longer survival
  T/C: 108 % of control
T/C endpoint: median survival time, dose: 25.0 mg/kg/injection, schedule: Q01DX009 (ip), vehicle: saline with Tween-80, higher T/C = longer survival
  T/C: 101 and 110 % of control
T/C endpoint: median survival time, dose: 32.0 mg/kg/injection, schedule: Q01DX009 (ip), vehicle: other, higher T/C = longer survival
  T/C: 91 % of control
T/C endpoint: median survival time, dose: 47.0 mg/kg/injection, schedule: Q01DX015 (ip), vehicle: other, evaluated on day 41, higher T/C = longer survival
  T/C: 156 % of control
T/C endpoint: median survival time, dose: 47.0 mg/kg/injection, schedule: Q01DX015 (ip), vehicle: other, evaluated on day 44, higher T/C = longer survival
  T/C: 104 % of control
T/C endpoint: median survival time, dose: 50.0 mg/kg/injection, schedule: Q01DX009 (ip), vehicle: Klucel (hydroxypropylcellulose) (HPC), higher T/C = longer survival
  T/C: 105 % of control
T/C endpoint: median survival time, dose: 50.0 mg/kg/injection, schedule: Q01DX009 (ip), vehicle: saline with Tween-80, higher T/C = longer survival
  T/C: 125 and 144 % of control
T/C endpoint: median survival time, dose: 64.0 mg/kg/injection, schedule: Q01DX009 (ip), vehicle: other, higher T/C = longer survival
  T/C: 111 % of control
T/C endpoint: median survival time, dose: 70.0 mg/kg/injection, schedule: Q01DX015 (ip), vehicle: other, evaluated on day 41, higher T/C = longer survival
  T/C: 136 % of control
T/C endpoint: median survival time, dose: 70.0 mg/kg/injection, schedule: Q01DX015 (ip), vehicle: other, evaluated on day 44, higher T/C = longer survival
  T/C: 100 % of control
T/C endpoint: median survival time, dose: 100.0 mg/kg/injection, schedule: Q01DX009 (ip), vehicle: Klucel (hydroxypropylcellulose) (HPC), higher T/C = longer survival
  T/C: 110 % of control
T/C endpoint: median survival time, dose: 100.0 mg/kg/injection, schedule: Q01DX009 (ip), vehicle: saline with Tween-80, higher T/C = longer survival
  T/C: 92 and 101 % of control
T/C endpoint: median survival time, dose: 100.0 mg/kg/injection, schedule: Q08DX002 (ip), vehicle: Klucel (hydroxypropylcellulose) (HPC), higher T/C = longer survival
  T/C: 93 % of control
T/C endpoint: median survival time, dose: 100.0 mg/kg/injection, schedule: Q08DX002 (ip), vehicle: saline with Tween-80, higher T/C = longer survival
  T/C: 110 % of control (2×)
[1]
  T/C: 115 % of control
  survivor count: 10 of 10
T/C endpoint: median survival time, dose: 128.0 mg/kg/injection, schedule: Q01DX009 (ip), vehicle: other, higher T/C = longer survival
  survivor count: 10 of 10
T/C endpoint: median survival time, dose: 130.0 mg/kg/injection, schedule: Q11DX002 (ip), vehicle: other, higher T/C = longer survival
  T/C: 123 % of control
T/C endpoint: median survival time, dose: 180.0 mg/kg/injection, schedule: Q01DX001 (ip), vehicle: other, evaluated on day 41, higher T/C = longer survival
  T/C: 120 % of control
T/C endpoint: median survival time, dose: 180.0 mg/kg/injection, schedule: Q01DX001 (ip), vehicle: other, evaluated on day 44, higher T/C = longer survival
  T/C: 92 % of control
T/C endpoint: median survival time, dose: 200.0 mg/kg/injection, schedule: Q01DX009 (ip), vehicle: Klucel (hydroxypropylcellulose) (HPC), higher T/C = longer survival
  survivor count: 10 of 10
[2]
  T/C: 110 % of control
  survivor count: 10 of 10
T/C endpoint: median survival time, dose: 200.0 mg/kg/injection, schedule: Q08DX002 (ip), vehicle: Klucel (hydroxypropylcellulose) (HPC), higher T/C = longer survival
  T/C: 108 % of control
T/C endpoint: median survival time, dose: 200.0 mg/kg/injection, schedule: Q08DX002 (ip), vehicle: saline with Tween-80, higher T/C = longer survival
  T/C: 125 and 130 % of control
T/C endpoint: median survival time, dose: 200.0 mg/kg/injection, schedule: Q11DX002 (ip), vehicle: other, higher T/C = longer survival
  T/C: 69 % of control
T/C endpoint: median survival time, dose: 256.0 mg/kg/injection, schedule: Q01DX009 (ip), vehicle: other, higher T/C = longer survival
  survivor count: 10 of 10
T/C endpoint: median survival time, dose: 270.0 mg/kg/injection, schedule: Q01DX001 (ip), vehicle: other, evaluated on day 41, higher T/C = longer survival
  T/C: 103 % of control
T/C endpoint: median survival time, dose: 270.0 mg/kg/injection, schedule: Q01DX001 (ip), vehicle: other, evaluated on day 44, higher T/C = longer survival
  T/C: 102 % of control
T/C endpoint: median survival time, dose: 300.0 mg/kg/injection, schedule: Q01DX001 (ip), vehicle: other, higher T/C = longer survival
  T/C: 121 % of control
T/C endpoint: median survival time, dose: 300.0 mg/kg/injection, schedule: Q11DX002 (ip), vehicle: other, higher T/C = longer survival
  T/C: 112 % of control
T/C endpoint: median survival time, dose: 350.0 mg/kg/injection, schedule: Q01DX001 (ip), vehicle: other, higher T/C = longer survival
  T/C: 111 % of control
T/C endpoint: median survival time, dose: 400.0 mg/kg/injection, schedule: Q01DX001 (ip), vehicle: other, higher T/C = longer survival
  T/C: 140 % of control
T/C endpoint: median survival time, dose: 400.0 mg/kg/injection, schedule: Q01DX009 (ip), vehicle: Klucel (hydroxypropylcellulose) (HPC), higher T/C = longer survival
  survivor count: 10 of 10
T/C endpoint: median survival time, dose: 400.0 mg/kg/injection, schedule: Q01DX009 (ip), vehicle: saline with Tween-80, higher T/C = longer survival
  survivor count: 10 of 10
T/C endpoint: median survival time, dose: 400.0 mg/kg/injection, schedule: Q08DX002 (ip), vehicle: Klucel (hydroxypropylcellulose) (HPC), higher T/C = longer survival
  survivor count: 10 of 10
[3]
  T/C: 142 % of control
  survivor count: 10 of 10
T/C endpoint: median survival time, dose: 405.0 mg/kg/injection, schedule: Q01DX001 (ip), vehicle: other, evaluated on day 41, higher T/C = longer survival
  T/C: 134 % of control
T/C endpoint: median survival time, dose: 405.0 mg/kg/injection, schedule: Q01DX001 (ip), vehicle: other, evaluated on day 44, higher T/C = longer survival
  T/C: 154 % of control
T/C endpoint: median survival time, dose: 800.0 mg/kg/injection, schedule: Q08DX002 (ip), vehicle: Klucel (hydroxypropylcellulose) (HPC), higher T/C = longer survival
  survivor count: 10 of 10
[4]
  T/C: 155 % of control
  survivor count: 10 of 10
T/C endpoint: median tumor weight (est.), dose: 21.7 mg/kg/injection, schedule: Q01DX009 (ip), vehicle: other, evaluated on day 14, higher T/C = larger tumour
  T/C: 70 % of control
T/C endpoint: median tumor weight (est.), dose: 22.0 mg/kg/injection, schedule: Q01DX009 (ip), vehicle: other, evaluated on day 14, higher T/C = larger tumour
  T/C: 53 and 54 % of control
T/C endpoint: median tumor weight (est.), dose: 25.0 mg/kg/injection, schedule: Q01DX009 (ip), vehicle: Klucel (hydroxypropylcellulose) (HPC), evaluated on day 18, higher T/C = larger tumour
  T/C: 79 % of control
T/C endpoint: median tumor weight (est.), dose: 43.5 mg/kg/injection, schedule: Q01DX009 (ip), vehicle: other, evaluated on day 14, higher T/C = larger tumour
  T/C: 50 % of control
T/C endpoint: median tumor weight (est.), dose: 44.0 mg/kg/injection, schedule: Q01DX009 (ip), vehicle: other, evaluated on day 14, higher T/C = larger tumour
  T/C: 30 and 60 % of control
T/C endpoint: median tumor weight (est.), dose: 50.0 mg/kg/injection, schedule: Q01DX009 (ip), vehicle: Klucel (hydroxypropylcellulose) (HPC), evaluated on day 18, higher T/C = larger tumour
  T/C: 50 % of control
T/C endpoint: median tumor weight (est.), dose: 87.0 mg/kg/injection, schedule: Q01DX009 (ip), vehicle: other, evaluated on day 14, higher T/C = larger tumour
  T/C: 2 [9 of 10 alive on day 14] and 45 % of control
T/C endpoint: median tumor weight (est.), dose: 100.0 mg/kg/injection, schedule: Q01DX009 (ip), vehicle: Klucel (hydroxypropylcellulose) (HPC), evaluated on day 18, higher T/C = larger tumour
  T/C: 15 % of control
T/C endpoint: median tumor weight (est.), dose: 100.0 mg/kg/injection, schedule: Q08DX002 (ip), vehicle: Klucel (hydroxypropylcellulose) (HPC), evaluated on day 18, higher T/C = larger tumour
  T/C: 51 % of control
T/C endpoint: median tumor weight (est.), dose: 200.0 mg/kg/injection, schedule: Q01DX009 (ip), vehicle: Klucel (hydroxypropylcellulose) (HPC), evaluated on day 18, higher T/C = larger tumour
  T/C: 2 % of control [7 of 10 alive]
T/C endpoint: median tumor weight (est.), dose: 200.0 mg/kg/injection, schedule: Q08DX002 (ip), vehicle: Klucel (hydroxypropylcellulose) (HPC), evaluated on day 18, higher T/C = larger tumour
  T/C: 46 % of control [9 of 10 alive]
T/C endpoint: median tumor weight (est.), dose: 400.0 mg/kg/injection, schedule: Q08DX002 (ip), vehicle: Klucel (hydroxypropylcellulose) (HPC), evaluated on day 18, higher T/C = larger tumour
  T/C: 4 % of control [8 of 10 alive]
